Paper doi:10.1101/2025.11.06.685569 (bioRxiv, 2025)

What was measured:
Experiment in all cases: pull-down
[1] = target: Myc-tagged Atg9^ΔTMR (S. cerevisiae)
[2] = target: FLAG-tagged Atg9^ΔTMR_S802D (S. cerevisiae)
[3] = target: FLAG-tagged Atg9^ΔTMR_T804E_S819D_S831D_S842D (S. cerevisiae)
[4] = target: FLAG-tagged Atg9^ΔTMR_Helix-1_mut (S. cerevisiae)
[5] = target: FLAG-tagged Atg9^ΔTMR_Helix-2_mut (S. cerevisiae)
[6] = target: FLAG-tagged Atg9^ΔTMR (S. cerevisiae)
[7] = target: FLAG-tagged Atg9^ΔTMR_Helix-1+2_mut (S. cerevisiae)
[8] = target: FLAG-tagged Atg9^ΔTMR_Δ939-997 (S. cerevisiae)

binding [1]: binds
B1: Atg17 (protein, UniProt Q06410 1-417)
chain: MNEADVTKFVNNARKTLTDAQLLCSSANLRIVDIKKKLSSWQLSISKLNFLIVGLRQQGKFLYTILKEGIGTKLIQKQWNQAVLVVLVDEMKYWQYEITSKVQRLDGIVNELSISEKDDTDPSKLGDYISRDNVNLLNDKLKEVPVIERQIENIKLQYENMVRKVNKELIDTKLTDVTQKFQSKFGIDNLMETNVAEQFSRELTDLEKDLAEIMNSLTQHFDKTLLLQDKKIDNDEREELFKVVQGDDKELYNIFKTLHEVIDDVDKTILNLGQFLQAKIKEKTELHSEVSEIINDFNRNLEYLLIFKDISNLIDSFKNSCTQDIQTTKELCEFYDNFEESYGNLVLEAKRRKDVANRMKTILKDCEKQLQNLDAQDQEERQNFIAENGTYLPETIWPGKIDDFSSLYTLNYNVKNP

binding [1]: binds
B2: FLAG-StrepII^2x-tagged Atg11 (protein, UniProt Q12527 1-1178)
chain: MADADEYSTAPTQQEITPLQTTATIINAISGECITTNVDFFVSLDKFKQFIARKWKIPPDQLLILLPYGNKLKPSMFKELLINRSFTLNDFYVYDRRLFSLVSKPTPTNLLTSKDSNPMNSPNSNDLTETLEYLIKNSHISQYQGSDTIMIKPMPSPLEDADVDLSRLNYHSVTSLLTTNLGWLSALEIDVHYFKSLIPDIIAHIKRIFDGLTVCSQYLKLYCFDVESLYNSNVQFLNQLVDNGMTSKWEKCFNDTLSKLTALEGDSLQKFINIESLLENEKSVKILNHSINGKLNKIKREIDENASFRDIITVNIDRLRQMFTPNESKFELEDQMAESFEVLVSEMRTRSRNVLDKEEEEFNSQEFLKSMNVMLEKDKKESVKTLFTISQALYSQIGELIDLKKSLQKHAVAILGNIAFTQMEILGIKRLLLNECNKDLELYKKYEVEFAQVEDLPLIYGLYLIEKYRRLSWFQQILSFISNFNQDLELFKQNELRTRNKWVKNFGSIATVFCEDLLSSSDFKRLNEYHSHTSPPNEDEEDENENSIANYRQDLVKVSQAIDNYMTQIKETDVSEPIIDLLSKTLFETKRFHIIYSNFKNNNNNSSNGNSISPEGSIALKSDDVVKGYKTRIKKLESLLHEFQYSDIGHWPQGVLNTHLKPFRGSATSINKKKFLGASVLLEPANISEVNIDSVSQANNHQIQELESNVDDLLHQLQLLKEENNRKSMQISEMGKKISDLEVEKTAYRETLTNLNQELARLTNEEQSHRTEIFTLNASFKKQLNDIISQDNEKIEKLTGDYDDVSKSRERLQMDLDESNKKHEQEVNLLKADIERLGKQIVTSEKSYAETNSSSMEKGEKFETIPLAEDPGRENQISAYTQTLQDRIFDIISTNIFILENIGLLLTFDNNNNIQIRRVKGLKKGTAQSNILDESTQMLDAHDNSLIKSPVFQKLKDEYELIKSVANGSEKDTQQSIFLGNITQLYDNKLYEVAVIRRFKDIETLAKKLTKENKIKRTLLERFQREKVTLRNFQIGDLALFLPTRENVNSVGSMSSSTSSLSSSFSSVDLSTPPPLDAMSIQSSPSVIHSNVINQASISGRDKNKLMRPWAAFTAFEESTRYFLKDEKGLTKGKEWFVGRIVTLEHFVADSPSNNPFRLPKGSVWFQVTAVVVSYQGV

binding [2]: binds
binding [3]: binds weakly
binding [4]: binds
binding [5]: binds
binding [6]: binds
binding [7]: binds weakly
Binder: TRGGSFQDFRAEFIQRSTQFLTSLPEFCKEVVSRILGRSTAQRGGYSAV (domain or fragment, S. cerevisiae, UniProt P46989 223-271, looked up) [SUMO*-Atg27^CTR-StrepII^2x]

binding [8]: binds
B3: Atg23 (no tag named in the legend) (protein, UniProt Q06671 1-453)
chain: MELNQVLEKKEQILQYLGTLVGLHEKALSDVNSASQVTSIRKDITICLNDLCRINDLLVSHDGLLKREIGSLLRDKQELLELNEREQLLWKERKSWHIKQETDAAPADYVIDKDAIITISSHHRTSLNKYIESVGAENTILSNTDDSDAMIEEVQNAESSADQMIRNYKLLQLSHKQAKSEIIRLETLLRDFKKDNKFIEEELKRQSGRIRSEMGNIDFHLSKIEESKHQLMKRIGFESPLTQEKSLSEKIFNLRLSSADEDYNERQTINMKNFVHMKDLIELKIEDLQEQLMRNKNESSTVLTQRELWLDCQKKVGDLESKLITKLRSSSNSKIPPNEMSEMINSTIQYLNNLLDSSDEKLTTTLISNERDVLSKACEELHSESTTAQDGSSALPSKPIDIHKSHKGSNASSNLKQPSTPSFLVASKSPPKIGISESVVNANKNDAISKKVE

binding [1]: binds
B4: FLAG-tagged Atg23 (protein, UniProt Q06671 1-453)
chain: MELNQVLEKKEQILQYLGTLVGLHEKALSDVNSASQVTSIRKDITICLNDLCRINDLLVSHDGLLKREIGSLLRDKQELLELNEREQLLWKERKSWHIKQETDAAPADYVIDKDAIITISSHHRTSLNKYIESVGAENTILSNTDDSDAMIEEVQNAESSADQMIRNYKLLQLSHKQAKSEIIRLETLLRDFKKDNKFIEEELKRQSGRIRSEMGNIDFHLSKIEESKHQLMKRIGFESPLTQEKSLSEKIFNLRLSSADEDYNERQTINMKNFVHMKDLIELKIEDLQEQLMRNKNESSTVLTQRELWLDCQKKVGDLESKLITKLRSSSNSKIPPNEMSEMINSTIQYLNNLLDSSDEKLTTTLISNERDVLSKACEELHSESTTAQDGSSALPSKPIDIHKSHKGSNASSNLKQPSTPSFLVASKSPPKIGISESVVNANKNDAISKKVE

These are yes or no findings as the source states them, for the method shown. Binding can be weak; no strength is given. For some of these results: Sequences can lack the tags named with a protein. Each block holds one binder with its values, some of them ahead of it.
